Laboratory results reported in PubChem BioAssay AID1508600 (Functional Genomics Laboratory (NCATS/FGL), 2020).
Out of some 53,000 sequences screened, about 3,700 (7%) were called active.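 Rule for the calls: active = gene knockdowns whose robust z-score for IL-1 alpha signal is at least 2 or at most -2, so actives lie on both sides; inactive = the rest.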 This is one part of the list.

Assay: Components of the Cytosolic LPS Sensing Pathway: Gene Identification via Genome-wide siRNA Screen;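 note: robust z of the log signal after scaling to non-targeting control siRNA wells of the plate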
Conditions: RAW264.7 macrophages, IL-1a HTRF, actives lie on both sides, screened at 100 nM (by protocol), cells primed 5 h with Pam3CSK4 first
In short: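 RAW264.7 mouse macrophages reverse-transfected with single siRNAs (100 nM final) for 48h, primed with Pam3CSK4 for 5 hours, then transfected with LipidA for 24 hour. Supernatant IL-1a read by HTRF; values normalized to negative-control median, log-transformed robust z-scores.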

**Q.** With GGUUGAAUAUACUUAGCACTT against Gm5082 as the sequence, how does the z-score read?
**A.** Its z-score is inactive: 0.947.

**Q.** Which z-score does the source give for CCAAGGGUCACCUAUUUUUTT against Kcna5 here?
**A.** The z-score was inactive: 1.97.

**Q.** For CAAGACUAUUUGGCCUGAGTT against Gbx1, which z-score is on record?
**A.** The z-score was inactive: 1.71.

**Q.** Which z-score does the source give for GGUGGGAAAGGAAUUUGACTT against Glod5 here?
**A.** The z-score was inactive: 0.706.

**Q.** Which z-score does the source give for GGAAGAUUAAAGGACAGUATT against Yipf3 here?
**A.** The z-score was inactive: 0.0998.

**Q.** With GGUCUCCCUCUUCCAUAACTT against Klk10 as the sequence, how does the z-score read?
**A.** Its z-score is inactive: -1.7.

**Q.** For GGGAGAGUCUUGGCAACUUTT against Btbd17, which z-score is on record?
**A.** Its z-score is active: -2.12.

**Q.** Which z-score does the source give for GGAUUUCUGGGACUCCACUTT against Tnfsf10 here?
**A.** Its z-score is inactive: -1.26.

**Q.** For GGACAAAUUGUAUGGCGAATT against Hecw2, which z-score is on record?
**A.** The z-score was inactive: -0.402.

**Q.** Which z-score does the source give for GGAGUUCCUCACACUAAUCTT against Gch1 here?
**A.** Its z-score is inactive: 0.172.

**Q.** Which z-score does the source give for GGACAACUCCAAUUCCCUATT against Rasgrp2 here?
**A.** Its z-score is inactive: -1.53.

**Q.** Which z-score does the source give for GCCAAGAUGUGGCAACCCATT against Mmp2 here?
**A.** Its z-score is inactive: -1.61.

**Q.** With GCCAAGAGCAUAUCUUAGUTT against Rcan1 as the sequence, how does the z-score read?
**A.** The z-score was inactive: 1.09.

**Q.** For GGAAAUGAGCCAGGAUGGUTT against Cdca4, which z-score is on record?
**A.** Its z-score is inactive: 0.0601.

**Q.** Which z-score does the source give for GGUGUUUCCAAUUAGGAAATT against Gjb1 here?
**A.** The z-score was inactive: -0.209.

**Q.** Which z-score does the source give for GGUAAUGUGCAACACUGUGTT against Zfp13 here?
**A.** Its z-score is inactive: -0.514.

**Q.** With “GAGACACUUGUGCUGUAGGTT against F730035P03Rik” as the sequence, how does the z-score read?
**A.** The z-score was inactive: 0.108.

**Q.** For GGAGAACUUCUGGAGCACCTT against Clec4n, which z-score is on record?
**A.** The z-score was inactive: -0.569.

**Q.** Which z-score does the source give for GGUAUCUCCUGUGAACGACTT against Chmp7 here?
**A.** Its z-score is inactive: 0.0471.

**Q.** For GCUUUUCCGACAGGACCUGTT against Rptor, which z-score is on record?
**A.** Its z-score is inactive: -0.404.

**Q.** For GGAGAAAAUAGAGACUCAATT against Scg2, which z-score is on record?
**A.** The z-score was inactive: -0.605.

**Q.** With GGUUAGUAGUCUUCUUAUCTT against Olfr1173 as the sequence, how does the z-score read?
**A.** Its z-score is inactive: 0.291.

**Q.** For GGUUCUAUUACAAGAAAGGTT against Enpp6, which z-score is on record?
**A.** The z-score was inactive: -0.738.

**Q.** With GGAAUCUGCACCAUUUUCCTT against Lrrc28 as the sequence, how does the z-score read?
**A.** The z-score was inactive: -0.225.

**Q.** Which z-score does the source give for CGGCAGGACAAAUCUAGAUTT against Rab44 here?
**A.** Its z-score is inactive: 0.408.

**Q.** With GGCUGUUGAGAUCCCAGAGTT against Abhd11 as the sequence, how does the z-score read?
**A.** The z-score was inactive: -1.17.

**Q.** Which z-score does the source give for CCUAUAGCUUGGUAACAGGTT against Gnb1l here?
**A.** The z-score was inactive: -0.747.

**Q.** With GGCAAAAGGGACAAAAACUTT against Gadd45a as the sequence, how does the z-score read?
**A.** Its z-score is inactive: -1.64.

**Q.** With GGACAACUAUGGGACAGAGTT against LOC626846 as the sequence, how does the z-score read?
**A.** Its z-score is inactive: 0.77.

**Q.** Which z-score does the source give for GGGUUUAUGUUGCCGACUCTT against Setd7 here?
**A.** Its z-score is active: 2.04.

**Q.** For GCGCAGAUACCUGUUUGUUTT against Tmem70, which z-score is on record?
**A.** Its z-score is inactive: 1.52.

**Q.** Which z-score does the source give for GGGAACCAGAAUUCACAAATT against Trp53inp2 here?
**A.** Its z-score is inactive: -1.99.

**Q.** For GGACUCUCUGAAUAACAACTT against Mapk8ip2, which z-score is on record?
**A.** The z-score was inactive: -0.0013.

**Q.** With GGAUUUUAAACAAAAGACCTT against Stard13 as the sequence, how does the z-score read?
**A.** The z-score was inactive: 0.718.

**Q.** For GCACUAUGUGGAGAGAUUGTT against Esrrb, which z-score is on record?
**A.** The z-score was inactive: 1.61.

**Q.** Which z-score does the source give for GGAAUUCAUGAAGACUUGGTT against Calb1 here?
**A.** Its z-score is inactive: 1.2.

**Q.** Which z-score does the source give for GGAGGUACCAGCAGAAAGUTT against Bpnt2 here?
**A.** The z-score was inactive: -0.651.

**Q.** Which z-score does the source give for GCGUAUUACGAAAGAUGUGTT against Prpf18 here?
**A.** Its z-score is inactive: -0.568.

**Q.** For GGUUCUUUCCUUGUUUUACTT against Olfr448, which z-score is on record?
**A.** The z-score was inactive: 0.113.

**Q.** Which z-score does the source give for “GCUGUGUUAGAAAGCAGGCTT against 4931406H21Rik” here?
**A.** Its z-score is inactive: 0.927.

**Q.** Which z-score does the source give for “GGACUCCUAAGUGUAACAGTT against 9130221H12Rik” here?
**A.** The z-score was inactive: 0.68.

**Q.** With GCUGAGAGACUUGUGAAAUTT against Ndufb11 as the sequence, how does the z-score read?
**A.** The z-score was inactive: 1.06.

**Q.** For GGAUUAGAAGAACUAAGAGTT against Ppp1r42, which z-score is on record?
**A.** Its z-score is inactive: -0.0726.

**Q.** Which z-score does the source give for GGCACGCUUAGCCAAAUGUTT against Herc2 here?
**A.** The z-score was inactive: -0.759.

**Q.** With GCCAGCAUAGCAGAAAAUATT against Usp25 as the sequence, how does the z-score read?
**A.** Its z-score is inactive: -0.761.

**Q.** Which z-score does the source give for GGGAUUUGCUGUGAGAAUUTT against Mpp6 here?
**A.** Its z-score is inactive: -1.72.

**Q.** Which z-score does the source give for GCUUAAAACCAUGUCUGAUTT against Asap1 here?
**A.** Its z-score is inactive: 1.14.

**Q.** Which z-score does the source give for GGGUUCAGGACAAGUUAAATT against Gpkow here?
**A.** Its z-score is inactive: -0.11.

**Q.** With GGCAUCAACUUCGUGCUAATT against Olfr541 as the sequence, how does the z-score read?
**A.** Its z-score is inactive: 1.77.

**Q.** For GCUCUGUAAACCAUGUAAGTT against Slc14a1, which z-score is on record?
**A.** The z-score was inactive: -0.441.

**Q.** With GGCGGGAAAUGUCUUUAUCTT against Rpl22 as the sequence, how does the z-score read?
**A.** Its z-score is inactive: 0.743.

**Q.** Which z-score does the source give for GGUGAUAGUCGUUUUCUAGTT against Wee1 here?
**A.** Its z-score is inactive: -0.785.

**Q.** With GGAGAGUGCAAGGAAGAAGTT against Haus8 as the sequence, how does the z-score read?
**A.** The z-score was inactive: 0.433.

**Q.** With CCCACAGGGAUUUAUUUAUTT against Slc37a1 as the sequence, how does the z-score read?
**A.** Its z-score is inactive: -0.362.

**Q.** Which z-score does the source give for GGAGAUUCAGAAAAAGCUGTT against Stmn2 here?
**A.** Its z-score is inactive: -0.238.

**Q.** For GAUCACUGGCAAGCACGAATT against Hspb1, which z-score is on record?
**A.** The z-score was inactive: -1.58.

**Q.** For GCAGGUUUGAUAUAAAAUCTT against Uba2, which z-score is on record?
**A.** The z-score was inactive: 0.162.

**Q.** Which z-score does the source give for GGCAAAAUCAUGUGGUUGATT against Dlat here?
**A.** Its z-score is inactive: -0.6.

**Q.** Which z-score does the source give for GGCUAAGAAUGAGACUGGUTT against Abcg4 here?
**A.** The z-score was inactive: -0.0869.

**Q.** Which z-score does the source give for GGCUACAAGUUGGUAAUCUTT against Pnkp here?
**A.** Its z-score is active: 3.36.

**Q.** For GGCAGACAGAGGGUAAAAATT against Slc24a1, which z-score is on record?
**A.** The z-score was inactive: -0.956.

**Q.** For GGCAGGUCUUACGCAAAACTT against Csf1r, which z-score is on record?
**A.** Its z-score is inactive: 0.837.

**Q.** For GCUGUCAAGCUAUAUGGCGTT against Llgl2, which z-score is on record?
**A.** The z-score was inactive: 0.348.

**Q.** Which z-score does the source give for GCCUUGGACAAAAACACUATT against Ryk here?
**A.** The z-score was inactive: -0.917.

**Q.** Which z-score does the source give for GGAACCUUCUCCAAAGCAATT against Rpgrip1 here?
**A.** The z-score was active: -2.45.

**Q.** Which z-score does the source give for GGCUGAGAACUUUUUAUUUTT against Dll3 here?
**A.** Its z-score is inactive: 0.153.

**Q.** With GCUACAAUGUCUUCUGGUCTT against Mogs as the sequence, how does the z-score read?
**A.** The z-score was inactive: 1.43.

**Q.** Which z-score does the source give for GGCCAAGAAGGUACGUUUCTT against Dcx here?
**A.** The z-score was inactive: 0.373.
